{"sequences": {"note": "Amino acid sequences for entries named in this document (tags omitted). Residues count along the entry.", "UniProt P23818, residues 19-907": "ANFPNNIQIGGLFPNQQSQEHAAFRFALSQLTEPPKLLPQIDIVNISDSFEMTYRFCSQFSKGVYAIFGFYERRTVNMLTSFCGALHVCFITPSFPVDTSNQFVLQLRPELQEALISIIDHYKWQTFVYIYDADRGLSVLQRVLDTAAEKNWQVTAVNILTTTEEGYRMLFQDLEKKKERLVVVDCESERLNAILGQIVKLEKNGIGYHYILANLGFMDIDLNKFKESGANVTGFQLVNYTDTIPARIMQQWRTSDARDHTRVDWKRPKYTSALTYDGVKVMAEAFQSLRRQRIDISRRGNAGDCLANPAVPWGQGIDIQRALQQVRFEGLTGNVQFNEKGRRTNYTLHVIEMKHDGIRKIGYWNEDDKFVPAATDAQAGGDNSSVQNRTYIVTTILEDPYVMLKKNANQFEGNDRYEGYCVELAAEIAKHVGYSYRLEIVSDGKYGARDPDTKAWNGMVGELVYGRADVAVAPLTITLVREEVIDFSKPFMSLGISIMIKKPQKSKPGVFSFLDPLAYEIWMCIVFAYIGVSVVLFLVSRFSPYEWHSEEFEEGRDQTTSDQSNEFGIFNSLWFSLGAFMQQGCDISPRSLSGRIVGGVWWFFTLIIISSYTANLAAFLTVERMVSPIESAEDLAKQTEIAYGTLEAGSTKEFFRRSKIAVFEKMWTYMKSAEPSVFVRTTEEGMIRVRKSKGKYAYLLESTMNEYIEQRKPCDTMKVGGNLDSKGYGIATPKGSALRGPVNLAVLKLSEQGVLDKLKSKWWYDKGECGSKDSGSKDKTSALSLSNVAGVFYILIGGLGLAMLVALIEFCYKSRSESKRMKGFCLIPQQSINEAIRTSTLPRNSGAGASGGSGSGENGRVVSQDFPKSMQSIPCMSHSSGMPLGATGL"}, "source": "paper PMC6092487", "binders": {"B1": {"name": "carnitine palmitoyltransferase 1C (endogenous, mouse brain) (enzyme, UniProt Q8BGD5 1-798)", "chain": "MAEAHQASSLLSSLSSDGAEVELSSPVWQEIYLCALRSWKRHLWRVWNDFLAGVVPATPLSWLFLFSTIQLACLLQLDPSLGLMEKIKELLPDWGGQHHQLQGFLSAAVFASCLWGALIFTLHVALRLLLSHHGWLLEPHGAMSSPTKTWLALVRIFSGRHPRLFSFQRALPRQPVPSAQETVRKYLESVRPVLGDDAFDRATALANDFLRLHAPRLQLYLQLKSWCTSNYVSDWWEEFVYLRSRGSLINSTYYMMDFLYVTPTPLQAARAGNAVHTLLLYRHLLNRQEISPTLLMGMRPLCSAQYERMFNTTRIPGVEKDHLRHLQDSRHVAVFHRGRFFRVGTHSPNGLLSPRALEQQFQDILDDPSPACPLEEHLAALTAAPRSMWAQVRESVKTHAATALEAVEGAAFFVSLDSEPAGLTREDPAASLDAYAHALLAGRGHDRWFDKSFTLIVFSNGKLGLSVEHSWADCPVSGHLWEFTLATECFQLGYATDGHCKGHPDPTLPQPQRLQWDLPEQIQPSISLALRGAKTLSGNIDCHVFPFSHFGKSFIKCCHVSSDSFIQLVLQLAHFRDRGQFCLTYESAMTRLFLEGRTETVRSCTREACQFVRAMDNKETDQHCLALFRVAVDKHQALLKAAMSGQGIDRHLFALYIMSRLLHMQSPFLTQVQSQQWLLSTSQVPVQQTHLIDVHNYPDYVSSGGGFGPAHDHGYGISYIFMGENAITFHISSKKSSTETDSHRLGQHIENALLDVASLFRVGQHFKRQFRGENSDYRYNFLSCKTVDPNTPTSSTNL"}}, "biological_target": "GluA1 subunit of AMPARs (endogenous, mouse brain) (mouse (endogenous in C57BL/6J brain)) (UniProt P23818)", "assay": "co-IP; mouse brain (cortex, cerebellum, hippocampus of WT and CPT1C KO mice); membrane pellet solubilised in 1% IGEPAL, 50 mM Tris-HCl pH 7.5, 150 mM NaCl, 10% glycerol, 4°C; 1.5 mg protein with 2 μg anti-GluA1 overnight, Protein-A sepharose; Western blot with anti-CPT1C", "note": "These are yes or no findings as the source states them, for the method shown. Binding seen in cells or lysates may run through a third protein. Some binding calls cover weakened binding; strength is not graded here."}
{"binder": "B1", "values": [{"measurement": "binding", "result": "binds"}]}
